Reference: US6689806B1, “Indolinone compounds as kinase inhibitors” (Sugen, Inc., priority 1999, dated 2004)
At least one structure is not confirmed: it was looked up by name or label, or the drawing left a doubt.

Protein sequences, listed by entry. Tags and fused reporters are not part of them. Residues count along the entry.
UniProt P09619, 33-1106: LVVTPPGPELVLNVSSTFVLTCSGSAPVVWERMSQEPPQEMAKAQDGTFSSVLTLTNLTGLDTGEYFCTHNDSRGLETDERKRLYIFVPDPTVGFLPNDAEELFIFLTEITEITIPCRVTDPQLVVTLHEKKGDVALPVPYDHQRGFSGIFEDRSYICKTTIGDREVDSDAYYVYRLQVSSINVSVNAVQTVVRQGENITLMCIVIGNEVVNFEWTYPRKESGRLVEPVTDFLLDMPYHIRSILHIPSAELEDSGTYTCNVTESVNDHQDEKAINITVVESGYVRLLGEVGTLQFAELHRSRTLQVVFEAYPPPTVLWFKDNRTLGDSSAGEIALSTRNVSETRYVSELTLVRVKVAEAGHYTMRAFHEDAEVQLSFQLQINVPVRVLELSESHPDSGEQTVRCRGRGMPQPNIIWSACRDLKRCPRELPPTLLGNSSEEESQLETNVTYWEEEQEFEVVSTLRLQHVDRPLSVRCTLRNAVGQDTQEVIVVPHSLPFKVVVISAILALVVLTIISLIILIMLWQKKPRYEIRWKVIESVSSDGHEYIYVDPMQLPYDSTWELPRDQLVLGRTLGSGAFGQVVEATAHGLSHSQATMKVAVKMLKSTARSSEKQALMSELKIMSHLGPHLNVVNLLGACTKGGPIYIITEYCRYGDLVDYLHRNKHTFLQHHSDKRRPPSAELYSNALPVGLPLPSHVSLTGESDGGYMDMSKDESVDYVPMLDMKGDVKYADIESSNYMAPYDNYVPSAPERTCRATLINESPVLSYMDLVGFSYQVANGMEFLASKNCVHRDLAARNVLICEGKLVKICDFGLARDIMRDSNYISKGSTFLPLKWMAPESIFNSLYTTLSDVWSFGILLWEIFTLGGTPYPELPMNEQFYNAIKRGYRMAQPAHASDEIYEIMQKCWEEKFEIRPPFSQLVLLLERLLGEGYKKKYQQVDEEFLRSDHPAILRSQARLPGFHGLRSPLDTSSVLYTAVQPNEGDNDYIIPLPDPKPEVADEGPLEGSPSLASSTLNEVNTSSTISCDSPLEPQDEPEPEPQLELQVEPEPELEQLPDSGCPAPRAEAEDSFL

How the values were obtained:
PDGFR [1] = molecular target: T1, PDGFR (Homo sapiens, UniProt P09619); test: Biochemical PDGFR assay (ELISA); set-up: expressed in transfected cells; host or cells: NIH 3T3; details: Table 7, in vitro kinase activity, read-out: PDGFr biochem IC50
Protocol: This assay measures the in vitro kinase activity of PDGFR using ELISA.
6. PDGFR-β expressing NlH 3T3 cell lysate.
1. Coat Corning 96 well ELISA plates with 0.5 μg 28D4C10 in 100 μL PBS per well, store overnight at 4° C.
5. Dilute lysate in HNTG (10 μg lysate/100 μL HNTG)
6. Add 100 μL of diluted lysate to each well. Shake at room temperature for 60 min.
8. Add 80 μL working kinase buffer mix to ELISA plate containing captured PDGFR.
9. Dilute test compound 1:10 in TBS in 96-well polypropylene plates (i.e., 10 μL compound+90 μL TBS).
10. Add 10 μL diluted test compound to ELISA plate.
11. Incubate for 30 minutes while shaking at room temperature.
12. Add 10 μL ATP directly to all wells except negative control well (final well volume should be approximately 100 μL with 20 μM ATP in each well.) Incubate 30 minutes while shaking.
13. After 30 minutes, stop reaction by adding 10 μL of 200 mM EDTA (pH 8.0) to each well.
15. Add 100 μL anti-phosphotyrosine (1:3000 dilution in TBST) per well. Incubate 30-45 min. at room temperature, with shaking.
17. Add 100 μL Biosource Goat anti-rabbit IgG peroxidase conjugate (1:2000 dilution in TBST) to each well. Incubate 30 min. at room temperature, with shaking.
19. Add 100 μL of ABTS/H2O2 solution to each well.
22. Read assay on Dynatech MR7000 ELISA reader: test filter: 410 nM, reference filter: 630 nM.

PDGFR [2] = molecular target: T1, PDGFR; test: PDGF-induced BrdU incorporation assay; type: cell-based; set-up: expressed in transfected cells; host or cells: 3T3; details: Table 7; 3T3 cells expressing human PDGF-R, PDGF 3.8 nM; read-out: BrdU DNA syn. PDGFr IC50
Protocol: The cellular/biologic assays described herein measure the amount of DNA made in response to activation of a test kinase, which is a general measure of a proliferative response. The general procedure for this assay is as follows: a compound is introduced to cells expressing the test kinase, either naturally or recombinantly, for some period of time after which, if the test kinase is a receptor, a ligand known to activate the receptor is added. After incubation at least overnight, a DNA labeling reagent such as Bromodeoxy-uridine (BrdU) or 3H-thymidine is added. The amount of labeled DNA is detected with either an anti-BrdU antibody or by measuring radioactivity and is compared to control cells not contacted with a test compound.
PDGF-Induced BrdU Incorporation Assay
(8) 3T3 cell line genetically engineered to express human PDGF-R.
(1) Cells are seeded at 8000 cells/well in DMEM, 10% CS, 2 mM Gln in a 96 well plate. Cells are incubated overnight at 37° C. in 5% CO2.
(2) After 24 hours, the cells are washed with PBS, and then are serum starved in serum free medium (0% CS DMEM with 0.1% BSA) for 24 hours. […]
(10) The absorbance of the samples are measured at 410 nm (in “dual wavelength” mode with a filter reading at 490 nm, as a reference wavelength) on a Dynatech ELISA plate reader.

Cc1[nH]c(/C=C2\C(=O)Nc3cccc(CCO)c32)c(C)c1CCCN(C)C [IN-009, 3-[4-(3-Dimethylamino-propyl)-3,5-dimethyl-1H-pyrrol-2-ylmethylene]-4-(2-hydroxy-ethyl)-1,3-dihydro-indol-2-one] gave an IC50 (PDGFR [1]) of 430 nM and an IC50 (PDGFR [2]) of 560 nM.
